PubChem BioAssay AID1454 (National Center for Advancing Translational Sciences (NCATS), 2008)
The whole screen tested about 130,000 compounds, of which about 550 (0.42%) were called active. All entries are inconclusive by the source's own rule. Clear calls are listed elsewhere. The call rests on the fitted dose curve; in most records, active means well fitted inhibition curve with a large enough effect; inconclusive means small, poorly fitted or top-dose-only effect, or effect the other way; inactive means flat fitted curve, though single readings scatter.
Potency means the concentration at half of the fitted maximal effect.

Experiment: qHTS Assay for Inhibitors of the ERK Signaling Pathway using a Homogeneous Screening Assay; Stimulation with EGF; further: nearly all actives have a fitted effect of over 55% in size
Conditions: HEK293-V1b, EGF-stimulated phospho-ERK AlphaScreen
For `CC(C)c1ccc(NC2CCN(C(=O)OC(C)(C)C)CC2)cc1`, the Potency was inconclusive: 39.8 µM.
